Data published in PubChem BioAssay AID540276 (National Center for Advancing Translational Sciences (NCATS), 2011).
In all, about 300,000 compounds went through this assay and about 5,400 (1.8%) were called active. The shares of active, inactive and inconclusive entries below differ from those in the screen. Calls come from the whole dose curve; tested in HEK293 cells. Where the call is inconclusive, the potency comes from a doubtful curve fit. More than one record can exist for a structure, and the calls need not agree.
Potency is the fitted concentration of half-maximal effect.

Test: qHTS for inhibitors of binding or entry into cells for Marburg Virus
Settings: Marburg virus pseudotyped entry inhibition, cell reporter; series mostly up to 37.8 µM
With Cc1cccc(OCC(=O)N2CCN(Cc3ccc([N+](=O)[O-])cc3)CC2)c1 the Potency was “inactive”. In the case of CCOC(=O)c1cc2c(c(CSc3nc4ccccc4c(=O)n3Cc3ccco3)c1)OCOC2, the Potency was inconclusive: 23.1 µM [inhibitor, partial curve, poor fit]. In the case of O=C(Nc1ccc(Br)cc1)c1cccc(N2C(=O)C3C4CCC(C4)C3C2=O)c1 (stereo unspecified), the Potency was inconclusive: 7.94 µM [inhibitor, partial curve, poor fit]. For Cc1cc(C)n(-c2nc(N(C)C)nc(N(C)C)n2)n1, the Potency was “inactive”. With COCCCNC(=S)N/N=C/c1cccc(OC)c1O the Potency was “inactive”. For CN(C)/C=C/C(=O)c1ccc(Oc2ccccc2)cc1, the Potency was inconclusive: 31.6 µM [inhibitor, single point]. For CCOc1ccccc1NC(=O)C12CC3CC(C1)CC(c1ccc(C)cc1)(C3)C2, the Potency was inconclusive: 29.1 µM [inhibitor, single point]. For COCCNC(=S)N/N=C/c1ccccc1C(=O)O, the Potency was “inactive”. In the case of Cn1c(CCN2CCOCC2)nc2cc(NC(=O)COc3ccccc3)ccc21, the Potency was inconclusive: 0.461 µM [inhibitor, full curve, poor fit]. For c1ccc(OCCn2c(COc3ccccc3)nc3ccccc32)cc1, the Potency was “inactive”. With CC1=NN(c2ccccc2)C(=O)C1C(=O)C(=O)Nc1ccc(F)cc1 (stereo unspecified) the Potency was inconclusive: 10 µM [activator, partial curve, poor fit]. In the case of CN1N=C(C(=O)N=c2sc3ccccc3n2C)CCC1=O, the Potency was inconclusive: 3.16 µM [activator, partial curve, poor fit]. For Nc1sc(-c2ccccc2)cc1-c1n[nH]c(=S)n1C1CCCCC1, the Potency was inconclusive: 0.891 µM [inhibitor, full curve, poor fit]. With C=CC[C@@]1(c2ccc(OC)cc2)Oc2ccccc2C2=NCCN=C21 the Potency was inconclusive: 0.0038 µM [inhibitor, full curve, poor fit]. For CC1CCN(CCCCOc2ccccc2F)CC1, the Potency was inconclusive: 1.26 µM [inhibitor, partial curve, poor fit]. With COCCNC(=S)NNC(=O)CSCc1ccc(Cl)cc1Cl the Potency was inconclusive: 8.91 µM [inhibitor, single point]. In the case of O=C1OC(Nc2nc(-c3ccc(F)cc3)cs2)c2ccccc21 (stereo unspecified), the Potency was inconclusive: 10 µM [inhibitor, partial curve, poor fit]. For COc1ccccc1C(=O)NC(CCSC)C(=O)NCc1ccncc1 (stereo unspecified), the Potency was “inactive”. With C=CCOc1ccc(CN(C)CC(=O)N(CC(C)C)c2c(N)n(CC(C)C)c(=O)[nH]c2=O)cc1 the Potency was inconclusive: 0.112 µM [inhibitor, full curve, poor fit]. With O=C1/C(=C/c2c[nH]c3ccccc23)CCC/C1=C\c1c[nH]c2ccccc12 the Potency was inconclusive: 0.794 µM [inhibitor, partial curve, poor fit]. In the case of Fc1ccc(-c2noc(-c3ccc4c(c3)CCO4)n2)cc1, the Potency was inconclusive: 3.55 µM [inhibitor, partial curve, poor fit]. With Cc1ccc2[nH]c(=O)c3cc(C(=O)NCCc4ccc(Cl)cc4)sc3c2c1 the Potency was “inactive”. In the case of CCCC(=O)Nc1cc(-c2nn(C)c(=O)c3ccccc23)ccc1OC, the Potency was inconclusive: 0.92 µM [activator, partial curve, poor fit]. For c1ccc(-c2ncc3c(ccc4ccccc43)n2)cc1, the Potency was inconclusive: 3.55 µM [inhibitor, single point]. For COc1ccccc1C(=O)Nc1ccc(OCc2cc(=O)n3cc(C)sc3n2)cc1, the Potency was “inactive”. With COc1cc(NS(=O)(=O)c2ccc(N/C=C\C(=O)c3ccc(OC)c(OC)c3)cc2)nc(OC)n1 the Potency was “inactive”. With Cc1oc(C)c2c(=O)ccc3c(c12)OC(N)=C(C#N)C3c1ccc(F)cc1 (stereo unspecified) the Potency was “inactive”. For COc1ccc(-c2nnc(SCC(=O)c3cccs3)o2)cc1, the Potency was “inactive”. With COc1cccc(CNS(=O)(=O)/C=C/c2ccc3c(c2)OCO3)c1 the Potency was inconclusive: 0.206 µM [inhibitor, full curve, poor fit]. In the case of Cc1noc(C)c1COC(=O)c1ccccc1Sc1ccccc1C#N, the Potency was inconclusive: 0.206 µM [inhibitor, full curve, poor fit]. With COc1ccccc1Nc1nccc(N(C)C)c1C#N the Potency was inconclusive: 6.31 µM [activator, single point]. For COc1cccc(N(CC(=O)Nc2ccccc2C(=O)N2CCCC2)S(C)(=O)=O)c1, the Potency was “inactive”. In the case of CC(=O)N1c2ccc(S(=O)(=O)N(C)Cc3ccccc3)cc2CC1C (stereo unspecified), the Potency was inconclusive: 35.5 µM [inhibitor, single point]. For CN(C)S(=O)(=O)c1cccc(-c2cn3ccccc3n2)c1, the Potency was inconclusive: 35.5 µM [activator, single point]. In the case of CC(=O)Cc1nsc(Nc2ccc(Cl)cc2)n1, the Potency was inconclusive: 35.5 µM [activator, single point]. In the case of CCc1ccc2nc(SCC(=O)N3CC(=O)Nc4ccccc43)c(C#N)cc2c1, the Potency was inconclusive: 5.62 µM [inhibitor, full curve, poor fit]. With CCOC(=O)c1c(NC(=O)CSc2nnc(-c3c[nH]c4ccccc34)n2C)sc2c1CCCC2 the Potency was inconclusive: 16.4 µM [activator, single point]. For CC(C)(C)C(=O)N1CCN(c2nc3ccc(Cl)cc3s2)CC1, the Potency was “inactive”. With Cc1nnc(SCC(=O)NN2C(=O)NC3(CCCCC3)C2=O)s1 the Potency was inconclusive: 0.398 µM [inhibitor, partial curve, poor fit]. In the case of N#CC1=C2SCC(O)(c3ccccc3)N2C(=O)CC1c1cccs1 (stereo unspecified), the Potency was active: 0.0326 µM. In the case of Cc1ccc(-c2noc(C3CCN(C(=O)Nc4ccc(C#N)cc4)CC3)n2)o1, the Potency was “inactive”. For COc1ccc(NC(=O)c2ccccc2NC(=O)CSc2ccccc2)cc1, the Potency was inconclusive: 10 µM [activator, single point]. For COc1cc(/C=N/Nc2ccccn2)ccc1OCC(C)C, the Potency was inconclusive: 6.31 µM [activator, single point]. In the case of O=C(Nc1ccccc1)Nc1nc(-c2ccc(F)cc2)cs1, the Potency was inconclusive: 4.47 µM [activator, full curve]. With CCOc1ccccc1CNC(=O)c1ccc(Cn2c(SCc3ccccc3)nc3cccnc32)cc1 the Potency was “inactive”. For COCCCNC(=O)N1c2ccccc2Sc2ccccc21, the Potency was “inactive”. For Cn1c(=N)n(CC(=O)c2cccs2)c2ccccc21, the Potency was inconclusive: 29.1 µM [inhibitor, single point]. For Clc1ccc(CS[C@@H](Cn2ccnc2)c2ccc(Cl)cc2Cl)cc1, the Potency was inconclusive: 9.2 µM [inhibitor, partial curve, poor fit]. For CCn1c(C(c2ccccc2)c2ccccc2)n[nH]c1=S, the Potency was inconclusive: 0.316 µM [activator, partial curve, poor fit]. With S=c1[nH]nc(COc2ccccc2)n1/N=C/c1ccco1 the Potency was inconclusive: 1.41 µM [inhibitor, partial curve, poor fit]. For C=CCn1c(C)c(C(C)=O)c(N2CCCC2)nc1=S, the Potency was inconclusive: 0.316 µM [activator, partial curve, poor fit]. For CCN(CC)S(=O)(=O)c1ccc(OC)c(NC(=O)CSc2cc(Cl)ccc2Cl)c1, the Potency was inconclusive: 5.62 µM [inhibitor, single point]. For Cc1nc(-n2nc(C)c(CCC(C)C)c2C)sc1C(=O)Nc1ccc(Br)cc1, the Potency was “inactive”. In the case of CCC(CC)C(=O)c1c[nH]c(C(=O)NCc2ccncc2)c1, the Potency was inconclusive: 2.82 µM [inhibitor, partial curve, poor fit]. In the case of COc1ccc(N(CC(=O)NCc2ccccc2)S(=O)(=O)c2c(C)noc2C)cc1, the Potency was inconclusive: 25.9 µM [inhibitor, partial curve, poor fit]. In the case of CCOc1ccc(NC(=O)c2nsc(Cl)c2Cl)cc1, the Potency was inconclusive: 10 µM [inhibitor, partial curve, poor fit]. For COc1ccc(-n2ncc3c(SCC(=O)NNC(C)=O)ncnc32)cc1, the Potency was inconclusive: 3.55 µM [inhibitor, full curve]. In the case of Cc1noc(C)c1COC(=O)c1cc(=O)[nH]c2ccccc12, the Potency was “inactive”. In the case of CC(=O)Nc1ccc2nc(N)sc2c1, the Potency was “inactive”. In the case of O=C1NN=C(c2ccc(Cl)cc2)CC1c1cccc(Br)c1 (stereo unspecified), the Potency was “inactive”. With CCN(CC)C(=O)CSc1nc2cc(S(=O)(=O)N3CCOCC3)ccc2n1CC the Potency was “inactive”. With COc1ccccc1N(C)S(=O)(=O)c1ccc(C)c(C(=O)Nc2nccs2)c1 the Potency was “inactive”. With COc1ccc(-c2nc(C#N)c(NCc3ccc(F)cc3)o2)cc1OC the Potency was “inactive”. With CCOC(=S)SCC(=O)Nc1nc(-c2ccccc2)cs1 the Potency was inconclusive: 2.51 µM [inhibitor, partial curve, poor fit]. In the case of CCOc1ccc(-c2cc3nc(C4CCN(C(=O)OC(C)(C)C)CC4)c(C(=O)O)cn3n2)cc1, the Potency was “inactive”. In the case of O=C(Oc1c(Cl)cc(Cl)c2ccccc12)N1CCCCC1, the Potency was inconclusive: 35.5 µM [inhibitor, single point]. In the case of CC12CCC(c3c(C(=O)O)nn(-c4ccc(F)cc4)c31)C2(C)C (stereo unspecified), the Potency was “inactive”. With CCC(=O)c1ccc(OCc2ccc(C(=O)OC)o2)c(OC)c1 the Potency was “inactive”. In the case of CCC1(CC)NC(=O)N(CC(=O)Nc2ccc(OCc3ccccc3)cc2)C1=O, the Potency was inconclusive: 5.62 µM [inhibitor, single point]. For Cc1ccc(NC(=O)CSCC(=O)OCc2cc(=O)oc3cc(O)ccc23)c(C)c1, the Potency was “inactive”. With CCOC(=O)c1cnc2ccc(Cl)cc2c1Nc1ccc(OCC)cc1 the Potency was inconclusive: 12.6 µM [inhibitor, single point].
